In assay [1] the target is MT-CO2 (Complex IV subunit) (human (endogenous in SUM159)) (UniProt P00403). Kind of assay: proximity ligation; Duolink in situ PLA on fixed, permeabilized pLPCX SIM2s-FLAG SUM159 cells; anti-FLAG with anti-UQCRC2, anti-MT-CO2 or anti-NDUFB10 antibodies; red puncta per cell against background.
The target of assay [2] is UQCRC2 (Complex III subunit) (human (endogenous in SUM159)) (UniProt P22695). The description is as above.

Protein sequences, listed by entry. Tags and fused reporters are not part of them. Lines headed by an entry give the natural chain unless they say otherwise; changes in a name come on top. Chains listed by the source or under a name are the forms on record and can include a tag or linker. Residues count along the entry.
UniProt P00403: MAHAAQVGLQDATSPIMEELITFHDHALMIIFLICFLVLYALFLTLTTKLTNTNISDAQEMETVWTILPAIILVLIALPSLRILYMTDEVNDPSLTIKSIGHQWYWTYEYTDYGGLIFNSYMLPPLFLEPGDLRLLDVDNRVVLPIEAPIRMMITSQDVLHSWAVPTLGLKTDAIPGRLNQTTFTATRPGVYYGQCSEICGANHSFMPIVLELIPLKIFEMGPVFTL
UniProt P22695, residues 15-453: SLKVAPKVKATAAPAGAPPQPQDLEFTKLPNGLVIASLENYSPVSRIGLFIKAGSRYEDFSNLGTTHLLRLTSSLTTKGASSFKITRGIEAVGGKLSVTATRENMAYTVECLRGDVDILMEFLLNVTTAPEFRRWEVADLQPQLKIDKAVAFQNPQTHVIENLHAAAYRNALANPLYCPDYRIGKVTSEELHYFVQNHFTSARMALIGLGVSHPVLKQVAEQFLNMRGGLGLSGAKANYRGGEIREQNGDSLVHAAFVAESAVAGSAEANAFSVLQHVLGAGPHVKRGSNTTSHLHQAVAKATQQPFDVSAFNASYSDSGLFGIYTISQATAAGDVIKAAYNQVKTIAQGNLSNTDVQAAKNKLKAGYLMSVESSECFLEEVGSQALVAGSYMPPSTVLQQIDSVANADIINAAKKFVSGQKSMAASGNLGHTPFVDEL
FLAG-tag labeled SIM2s (SIM2s-FLAG) (Q14190-2, form named): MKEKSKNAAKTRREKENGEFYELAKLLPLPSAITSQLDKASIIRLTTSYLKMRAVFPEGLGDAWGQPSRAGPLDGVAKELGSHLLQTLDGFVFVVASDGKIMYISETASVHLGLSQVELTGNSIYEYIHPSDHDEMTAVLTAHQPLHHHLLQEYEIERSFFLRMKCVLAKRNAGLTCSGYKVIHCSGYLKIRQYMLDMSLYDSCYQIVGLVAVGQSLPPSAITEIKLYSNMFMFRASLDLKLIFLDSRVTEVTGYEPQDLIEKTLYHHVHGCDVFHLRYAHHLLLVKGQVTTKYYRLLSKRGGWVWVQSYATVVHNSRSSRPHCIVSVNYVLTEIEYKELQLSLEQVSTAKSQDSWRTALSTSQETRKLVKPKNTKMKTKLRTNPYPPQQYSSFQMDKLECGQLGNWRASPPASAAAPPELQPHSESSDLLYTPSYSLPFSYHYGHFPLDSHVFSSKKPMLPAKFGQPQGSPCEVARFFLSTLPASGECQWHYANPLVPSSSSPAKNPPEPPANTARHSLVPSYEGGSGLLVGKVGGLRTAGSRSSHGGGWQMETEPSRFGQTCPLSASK

These are yes or no findings as the source states them, for the method shown. In cells and extracts the contact can be indirect. Some binding calls cover weakened binding; strength is not graded here.

Take “FLAG-tag labeled SIM2s (SIM2s-FLAG) (from UniProt Q14190-2 1-570)”: the binding entry in assay [1] and in assay [2] was “binds” in each case.

For the origin of these results see paper PMC10238511.
